PubChem BioAssay AID1508597 | Cure First – 2020

Assay: 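Survival screen with siRNA in ovarian cancer cells derived from patients, with or without rucaparib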 (primary screen)
Cell system: human ovarian carcinoma lines grown from tumours: OCI-P5x (papillary serous) and OCI-C5x (clear cell)
Knock-down reagent: siRNA pool against human genes, 1.25 pmol siRNA per well
Duration: 72 h or 96 h, depending on the cell culture
Treatment: rucaparib 20 µM (about IC30) or vehicle, present until read-out
Rucaparib or vehicle: Rucaparib
Cell line: OCI-C5x (clear cell)
Detection: 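ATP luminescence measured at 72 or 96 h according to the culture, then normalised and expressed as percent viability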
Scale: viability, normalised: higher = more viable cells remaining
Rule for the call: 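a well counts as a hit if its normalised viability is under 80 percent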
Meaning of the calls: active = viability under 80%; inactive = viability 80% or more
This is an unselected part of the about 2,100 reagents, in one setting of the screen. 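Calls flag viability under 80% in either arm, not effects specific to rucaparib; the reference for percent is not stated.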 A reagent listed more than once was tested more than once; the source does not tell the runs apart. Not given: the 100% reference.

MAPK13, technical replicate 1
- viability, normalised (%): 50.4
- outcome: active

MAPK13, technical replicate 2
- viability, normalised (%): 37.8
- outcome: active

MAPK13, technical replicate 3
- viability, normalised (%): 49.5
- outcome: active

RBKS, technical replicate 1
- viability, normalised (%): 47.5
- outcome: active

RBKS, technical replicate 2
- viability, normalised (%): 42.7
- outcome: active

RBKS, technical replicate 3
- viability, normalised (%): 61.7
- outcome: active

CERK, technical replicate 1
- viability, normalised (%): 52.6
- outcome: active

CERK, technical replicate 2
- viability, normalised (%): 48.8
- outcome: active

CERK, technical replicate 3
- viability, normalised (%): 39.1
- outcome: active

PANK1, technical replicate 1
- viability, normalised (%): 63.3
- outcome: active

PANK1, technical replicate 2
- viability, normalised (%): 58.8
- outcome: active

PANK1, technical replicate 3
- viability, normalised (%): 47.3
- outcome: active

MAP2K4, technical replicate 1
- viability, normalised (%): 51.5
- outcome: active

MAP2K4, technical replicate 2
- viability, normalised (%): 47
- outcome: active

MAP2K4, technical replicate 3
- viability, normalised (%): 47.9
- outcome: active

ACTG1, technical replicate 1
- viability, normalised (%): 65.8
- outcome: active

ACTG1, technical replicate 2
- viability, normalised (%): 54.1
- outcome: active

ACTG1, technical replicate 3
- viability, normalised (%): 68.7
- outcome: active

GTF2H4, technical replicate 1
- viability, normalised (%): 64.6
- outcome: active

GTF2H4, technical replicate 1
- viability, normalised (%): 45.6
- outcome: active

GTF2H4, technical replicate 2
- viability, normalised (%): 50.9
- outcome: active

GTF2H4, technical replicate 2
- viability, normalised (%): 51.8
- outcome: active

GTF2H4, technical replicate 3
- viability, normalised (%): 37.3
- outcome: active

GTF2H4, technical replicate 3
- viability, normalised (%): 56.5
- outcome: active

EDF1, technical replicate 1
- viability, normalised (%): 35.2
- outcome: active

EDF1, technical replicate 2
- viability, normalised (%): 37.4
- outcome: active

EDF1, technical replicate 3
- viability, normalised (%): 34
- outcome: active

SLX1A, technical replicate 1
- viability, normalised (%): 43.3
- outcome: active

SLX1A, technical replicate 2
- viability, normalised (%): 33.4
- outcome: active

SLX1A, technical replicate 3
- viability, normalised (%): 48.6
- outcome: active

HJURP, technical replicate 1
- viability, normalised (%): 78.2
- outcome: active

HJURP, technical replicate 2
- viability, normalised (%): 42.3
- outcome: active

HJURP, technical replicate 3
- viability, normalised (%): 51
- outcome: active

SMPDL3B, technical replicate 1
- viability, normalised (%): 57.5
- outcome: active

SMPDL3B, technical replicate 2
- viability, normalised (%): 68.2
- outcome: active

SMPDL3B, technical replicate 3
- viability, normalised (%): 43.9
- outcome: active

RSF1, technical replicate 1
- viability, normalised (%): 58.7
- outcome: active

RSF1, technical replicate 2
- viability, normalised (%): 45.2
- outcome: active

RSF1, technical replicate 3
- viability, normalised (%): 50
- outcome: active

PRMT7, technical replicate 1
- viability, normalised (%): 60.5
- outcome: active

PRMT7, technical replicate 2
- viability, normalised (%): 41.3
- outcome: active

PRMT7, technical replicate 3
- viability, normalised (%): 47.9
- outcome: active

3 of these entries, set out differently.
Gene | technical replicate | viability, normalised (%) | outcome
GTF2H4 | 3 | 37.3 | active
GTF2H4 | 3 | 56.5 | active
EDF1 | 1 | 35.2 | active
